We go through one sequence from patent US7112562B2 (Diatos, S.A., priority 2001, dated 2006).

Values joined by “and” are separate entries in the source; they are usually repeats but may differ in a detail not shown here. Identical values can stand only once.

This data set relates to Caco-2 cell monolayers. In words: TEER measurement, integrity of the Caco-2 barrier model with DPV7 or DPV10. The settings on record: Caco-2 monolayer, 30 μg/ml DPV with mannitol/proline, inserts 1-3. In kind it is cell-based.

As for “SSRRARRSPRHLGSG (listed as Homo sapiens) [DPV10]”, the TEER after incubation (after 8 hours in HBSS) is 153 Ω · cm^2 and 201 Ω · cm^2. Moreover, the TEER before incubation (before 8 hours in HBSS) was 500 Ω · cm^2 and 458 Ω · cm^2 and 501 Ω · cm^2.
